Measured values published in paper PMC5007356.

Protein sequences, listed by entry. Tags and fused reporters are not part of them. Lines headed by an entry give the natural chain unless they say otherwise; changes in a name come on top.
UniProt Q9VV79: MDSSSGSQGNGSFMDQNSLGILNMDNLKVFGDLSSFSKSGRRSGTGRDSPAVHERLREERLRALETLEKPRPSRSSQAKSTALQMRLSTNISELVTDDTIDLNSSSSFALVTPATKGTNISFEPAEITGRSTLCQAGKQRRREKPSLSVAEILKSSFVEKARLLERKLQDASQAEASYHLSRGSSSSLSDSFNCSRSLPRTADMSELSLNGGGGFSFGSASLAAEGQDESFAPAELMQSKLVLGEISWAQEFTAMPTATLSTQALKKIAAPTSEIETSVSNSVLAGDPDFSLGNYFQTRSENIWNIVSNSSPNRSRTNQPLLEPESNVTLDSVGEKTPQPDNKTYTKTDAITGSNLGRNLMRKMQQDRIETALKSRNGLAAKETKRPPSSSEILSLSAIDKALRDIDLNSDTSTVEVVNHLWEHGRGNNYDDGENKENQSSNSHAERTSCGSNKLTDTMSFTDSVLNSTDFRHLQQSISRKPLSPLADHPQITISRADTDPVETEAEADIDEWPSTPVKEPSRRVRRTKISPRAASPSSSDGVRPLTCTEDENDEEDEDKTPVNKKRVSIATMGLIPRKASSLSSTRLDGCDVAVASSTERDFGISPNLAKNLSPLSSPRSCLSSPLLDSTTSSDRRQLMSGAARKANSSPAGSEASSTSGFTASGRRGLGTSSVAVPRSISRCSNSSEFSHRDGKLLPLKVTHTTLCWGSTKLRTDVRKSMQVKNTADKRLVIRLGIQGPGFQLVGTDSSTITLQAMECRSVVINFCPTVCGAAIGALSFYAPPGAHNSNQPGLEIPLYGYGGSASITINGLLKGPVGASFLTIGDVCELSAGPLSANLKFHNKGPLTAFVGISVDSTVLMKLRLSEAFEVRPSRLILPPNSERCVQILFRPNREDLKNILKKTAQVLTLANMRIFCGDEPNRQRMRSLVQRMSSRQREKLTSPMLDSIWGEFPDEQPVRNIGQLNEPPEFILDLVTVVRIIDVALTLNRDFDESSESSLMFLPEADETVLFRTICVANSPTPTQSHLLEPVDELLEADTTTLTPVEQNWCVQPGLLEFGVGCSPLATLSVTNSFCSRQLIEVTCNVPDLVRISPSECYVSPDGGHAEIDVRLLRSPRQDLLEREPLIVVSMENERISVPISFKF
UniProt O18402: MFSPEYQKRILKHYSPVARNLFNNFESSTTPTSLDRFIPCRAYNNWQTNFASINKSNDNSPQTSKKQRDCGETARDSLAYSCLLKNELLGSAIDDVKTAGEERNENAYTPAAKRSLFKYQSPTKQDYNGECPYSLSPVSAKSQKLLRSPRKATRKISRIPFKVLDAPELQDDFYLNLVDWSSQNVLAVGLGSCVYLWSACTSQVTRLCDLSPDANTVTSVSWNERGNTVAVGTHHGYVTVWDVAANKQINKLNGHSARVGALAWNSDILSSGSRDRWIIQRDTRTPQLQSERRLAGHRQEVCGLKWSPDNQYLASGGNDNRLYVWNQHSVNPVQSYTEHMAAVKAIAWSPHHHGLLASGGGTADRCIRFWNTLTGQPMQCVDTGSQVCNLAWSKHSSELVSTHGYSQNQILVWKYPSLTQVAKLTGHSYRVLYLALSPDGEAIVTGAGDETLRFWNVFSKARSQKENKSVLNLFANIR

Tests used:
[1] = target: Spd2 (endogenous) (Drosophila melanogaster (endogenous in D. mel-2 cells, embryos and larval brains)) (UniProt Q9VV79); test: co-IP; anti-Spd2 antibody on PrA-coupled Dynabeads, wild-type D. mel-2 cell extract, 2 h at 4 °C; pre-immune rabbit serum as control; immunoblot
[2] = target: Fzr-GFP^fosmid (Drosophila melanogaster) (UniProt O18402); test: co-IP; GFP-Trap-MA beads, extract of 30 third instar larval brains of the fzr-GFP^fosmid line; immunoblot
[3] = target: GST-Spd2 (Drosophila melanogaster); test: pull-down; GST or GST-Spd2 fusion on Glutathione Sepharose beads mixed with 35S-labelled in vitro translated protein; 50 mM HEPES pH 7.5, 150 mM NaCl, 0.1% Triton X-100, 0.5 mg/ml BSA, 1 mM DTT; 30 min at room temperature; autoradiography; only the target purified

Which binding [1] does the source give for “Fzr (endogenous) (from UniProt O18402 1-478)” here?
Its binding is “binds”.

With Spd2 (endogenous) (from UniProt Q9VV79) as the molecule, how does the binding [2] read?
Its binding is “binds”.

B1: ^35S-labelled Fzy (protein, UniProt Q24044 1-526)
chain: MSQFNFVSDLQNALIMDGETRGPAPRWKKKLEASLNGSVNTTRSVLSVSYNTSFSGVQAPTKTPGKSSEGKTKKSNTTPSKTPGGGDRFIPNRAATNFELAHFLVNKDSGDKSDEENDKATSSNSNESNVQASAHKGDRQKLISEVAQVGDSKGGRILCYQNKAPAAPETHNNPLKVVYSIKTPISTKSGSRYIPTTSERILDAPDFINDYYLNLMDWSADNIVAVALGSCVYLWNAQTGNIEQLTEFEEGDYAGSLSWIQEGQILAIGNSTGAVELWDCSKVKRLRVMDGHSARVGSLAWNSFLVSSGSRDGTIVHHDVRAREHKLSTLSGHTQEVCGLKWSTDFKYLASGGNDNLVNVWSAASGGVGTATDPLHKFNDHQAAVRALAWCPWQPSTLASGGGTADRCIKFWNVNNGTLMKSVDSKSQVCSLLFSRHYKELISAHGFANNQLTIWKYPTMVKQADLTGHTSRVLQMAMSPDGSTVISAGADETLRLWNCFAPDPLASKKAVSTSKGKQSVFRQSIR
modifications: 35S-methionine-labelled
B1 was tested. Which binding [3] did it give?
Its binding is “binds”.

These are yes or no findings as the source states them, for the method shown. In cells and extracts the contact can be indirect. Binding can be weak; no strength is given.
